Assay results taken from paper PMC11629901.

Sequences of proteins named here, by UniProt entry; tags and fusion partners are left off. A change or cut given only in a name is not applied to a line headed by its entry. Residues count along the entry.
UniProt Q03692, residues 19-680: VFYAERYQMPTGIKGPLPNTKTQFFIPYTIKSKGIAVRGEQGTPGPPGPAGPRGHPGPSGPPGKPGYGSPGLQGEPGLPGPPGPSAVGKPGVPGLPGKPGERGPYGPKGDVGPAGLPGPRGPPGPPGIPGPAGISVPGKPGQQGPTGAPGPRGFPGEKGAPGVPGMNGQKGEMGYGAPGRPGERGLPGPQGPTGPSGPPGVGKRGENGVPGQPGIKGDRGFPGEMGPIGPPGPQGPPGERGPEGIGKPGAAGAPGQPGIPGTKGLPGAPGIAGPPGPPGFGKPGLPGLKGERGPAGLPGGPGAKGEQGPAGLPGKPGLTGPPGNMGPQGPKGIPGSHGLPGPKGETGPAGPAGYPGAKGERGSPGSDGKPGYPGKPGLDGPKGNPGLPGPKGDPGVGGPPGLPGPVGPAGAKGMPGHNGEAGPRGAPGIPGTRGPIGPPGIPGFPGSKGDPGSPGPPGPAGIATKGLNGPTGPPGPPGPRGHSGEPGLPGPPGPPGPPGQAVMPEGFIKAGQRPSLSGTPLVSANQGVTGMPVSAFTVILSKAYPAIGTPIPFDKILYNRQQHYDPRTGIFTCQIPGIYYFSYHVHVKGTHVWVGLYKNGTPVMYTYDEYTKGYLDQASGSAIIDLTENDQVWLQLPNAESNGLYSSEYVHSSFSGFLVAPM
UniProt P08476: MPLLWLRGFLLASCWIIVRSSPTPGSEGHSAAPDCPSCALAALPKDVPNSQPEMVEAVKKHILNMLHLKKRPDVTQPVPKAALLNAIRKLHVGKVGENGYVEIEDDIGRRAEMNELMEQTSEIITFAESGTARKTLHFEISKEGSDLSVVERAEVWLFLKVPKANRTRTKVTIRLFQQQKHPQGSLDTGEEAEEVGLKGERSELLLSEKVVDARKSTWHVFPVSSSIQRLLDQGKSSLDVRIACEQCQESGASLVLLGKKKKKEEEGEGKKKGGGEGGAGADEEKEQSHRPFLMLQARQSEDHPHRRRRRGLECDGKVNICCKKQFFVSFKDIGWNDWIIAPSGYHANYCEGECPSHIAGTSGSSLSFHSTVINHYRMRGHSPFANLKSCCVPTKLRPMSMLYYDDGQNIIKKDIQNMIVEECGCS

Key:
[1] = target: Flag-tagged COL10A1 (UniProt Q03692); assay: co-IP; exogenous Co-IP: plasmids co-transfected into HEK293T cells, 24 h, cold IP lysis buffer with phosphatase and protease inhibitors; protein G agarose beads with antibodies against the tag, 4°C overnight; SDS-PAGE and blot
[2] = target: collagen type X alpha 1 chain (COL10A1), endogenous (human (endogenous in PC3)) (UniProt Q03692); assay: co-IP; endogenous Co-IP: PC3 cells lysed in IP buffer, lysates precipitated with specific primary antibodies and protein G agarose beads, 4°C overnight; SDS-PAGE and blot

## HA-tagged INHBA (from UniProt P08476)
[1]
  binding: binds

## inhibin subunit beta A (INHBA), endogenous (from UniProt P08476)
[2]
  binding: binds

These are yes or no findings as the source states them, for the method shown. Binding seen in cells or lysates may run through a third protein. Binding calls can cover weak binding; strength is not graded here.
